Reference: PubChem BioAssay AID1259254 (NCATS, 2017)

Aim: 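Genome-wide screen for genes that prevent DNA re-replication in cancer cells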 (primary screen)
Cell system: human HCT116 colorectal cancer cells
Reagent: single siRNA against human genes
Timing: 3 days
Detection: 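Nuclei stained with Hoechst and imaged; cell-cycle phase assigned by DNA content; G2 share scaled per plate, non-targeting siRNA 0%, GMNN siRNA 100%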
Direction: G2 robust z-score and G2 cells, % of GMNN control: higher = more G2 cells, more excess DNA replication; raw share of cells in G2: higher = larger share of cells with G2 DNA content
Rule for the call: 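Active siRNAs have a G2 robust z of 5 or more median absolute deviations over the median, which in these data means about 38% or higher of GMNN control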
This is a random part of about 59,000 reagents. In the full data, about 1,550 (2.6%) are marked active. 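G2 share is only a proxy for re-replication; each gene was hit by three separate siRNAs, and active genes were retested.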 Raw values are not corrected between plates. Reagents against one gene are numbered here. The record does not give: the amount of reagent.

The first 2 entries as a preview:
Gene | reagent no. | G2 robust z-score | G2 cells, % of GMNN control | raw share of cells in G2 (%) | outcome
RCOR2 | 1 | 0.0563 | 3.36 | 7.56 | inactive
RCOR2 | 2 | 0.983 | 9.88 | 8.32 | inactive

Results, repeating the preview:
Gene | reagent no. | G2 robust z-score | G2 cells, % of GMNN control | raw share of cells in G2 (%) | outcome
RCOR2 | 1 | 0.0563 | 3.36 | 7.56 | inactive
RCOR2 | 2 | 0.983 | 9.88 | 8.32 | inactive
RCOR2 | 3 | 1.44 | 13.1 | 10.2 | inactive
C8B | 1 | -0.505 | -0.584 | 5.03 | inactive
C8B | 2 | -0.666 | -1.72 | 3.46 | inactive
C8B | 3 | -0.694 | -1.91 | 2.77 | inactive
HDDC2 | 1 | -0.706 | -2 | 3.09 | inactive
HDDC2 | 2 | 1.8 | 15.6 | 10.5 | inactive
HDDC2 | 3 | -0.952 | -3.73 | 2.08 | inactive
ARPC2 | 1 | 2.28 | 19 | 13.9 | inactive
ARPC2 | 2 | -0.258 | 1.16 | 4.43 | inactive
ARPC2 | 3 | -0.597 | -1.23 | 2.96 | inactive
TMEM59 | 1 | -0.629 | -1.46 | 4.67 | inactive
TMEM59 | 2 | -0.162 | 1.83 | 4.71 | inactive
TMEM59 | 3 | -0.483 | -0.433 | 3.25 | inactive
NCR3 | 1 | 0.144 | 3.98 | 5.09 | inactive
NCR3 | 2 | -0.699 | -1.95 | 2.29 | inactive
NCR3 | 3 | 1.14 | 11 | 6.62 | inactive
OR51D1 | 1 | 0.674 | 7.71 | 6.42 | inactive
OR51D1 | 2 | -0.267 | 1.09 | 3.88 | inactive
OR51D1 | 3 | -0.877 | -3.2 | 3.26 | inactive
ZNF815P | 1 | -0.807 | -2.71 | 3.67 | inactive
ZNF815P | 2 | 0.279 | 4.93 | 5.6 | inactive
ZNF815P | 3 | -1.07 | -4.55 | 1.71 | inactive
HNF1B | 1 | 3.63 | 28.5 | 14.8 | inactive
HNF1B | 2 | 0.517 | 6.61 | 7.2 | inactive
HNF1B | 3 | 1.33 | 12.3 | 8.25 | inactive
GPR68 | 1 | -0.269 | 1.07 | 6.23 | inactive
GPR68 | 2 | -1.12 | -4.9 | 2.8 | inactive
GPR68 | 3 | -0.339 | 0.585 | 3.45 | inactive
